# Assay results reported in the supplement of paper PMC8728848.
# The other results are listed elsewhere or left out.
# B1: GST Gap3 (Streptococcus parasanguinis) (protein)
# chain: MTKQLISEIYWNEIRKGENYLYGSQIKFQEDLVNFYNPQLASGKPIVTFKSRTNYQGDRHSPDLPILIQGNRYLLEYQIDAVPANSFFLQLDFFNRQAEQIESIVLRNSGESFIFPKDTFTYTLTLMSAGCQSVTYQKFMIYDINDEEKKNHIVENRYLRELLPKDLDLVKNLIEYI
# Experiments:
# Test in all cases: glycan array binding signal (z-score within array); higher = stronger binding
# Settings in all cases: glycan notation: IUPAC condensed, linker removed
# [1] = target: Fuc(a1-2)[GalNAc(a1-3)]Gal(b1-3)GalNAc(b1-3)Gal(a1-4)Gal(b1-4)Glc
# Outline: (§1)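 Glycan array data came from 3228 arrays in the Consortium for Functional Glycomics database, and only arrays with an available protein sequence were kept. Glycan names were put into IUPAC-condensed notation, and columns mapping to the same glycan were averaged. The binding signal is a within-array Z-score, averaged across arrays of one protein sequence run at different concentrations or buffers and across linkers. A negative Z-score can be read as non-binding.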
# [2] = target: Fuc(a1-2)[GalNAc(a1-3)]Gal(b1-3)GlcNAc
# Outline: as §1
# [3] = target: Fuc(a1-2)[GalNAc(a1-3)]Gal(b1-3)GlcNAc(b1-2)Man(a1-3)[Fuc(a1-2)[GalNAc(a1-3)]Gal(b1-3)GlcNAc(b1-2)Man(a1-6)]Man(b1-4)GlcNAc(b1-4)GlcNAc
# Outline: as §1
# [4] = target: Fuc(a1-2)[GalNAc(a1-3)]Gal(b1-3)GlcNAc(b1-2)Man(a1-3)[Fuc(a1-2)[GalNAc(a1-3)]Gal(b1-3)GlcNAc(b1-2)Man(a1-6)]Man(b1-4)GlcNAc(b1-4)[Fuc(a1-6)]GlcNAc
# Outline: as §1
# [5] = target: Fuc(a1-2)[GalNAc(a1-3)]Gal(b1-3)GlcNAc(b1-3)GalNAc
# Outline: as §1
# [6] = target: Fuc(a1-2)[GalNAc(a1-3)]Gal(b1-3)GlcNAc(b1-6)GalNAc
# Outline: as §1
# [7] = target: Fuc(a1-2)[GalNAc(a1-3)]Gal(b1-4)Glc
# Outline: as §1
# [8] = target: Fuc(a1-2)[GalNAc(a1-3)]Gal(b1-4)GlcNAc
# Outline: as §1
# [9] = target: Fuc(a1-2)[GalNAc(a1-3)]Gal(b1-4)GlcNAc(b1-2)Man
# Outline: as §1
# [10] = target: Fuc(a1-2)[GalNAc(a1-3)]Gal(b1-4)GlcNAc(b1-2)Man(a1-3)[Fuc(a1-2)[GalNAc(a1-3)]Gal(b1-4)GlcNAc(b1-2)Man(a1-6)]Man(b1-4)GlcNAc(b1-4)GlcNAc
# Outline: as §1
# [11] = target: Fuc(a1-2)[GalNAc(a1-3)]Gal(b1-4)GlcNAc(b1-2)Man(a1-3)[Fuc(a1-2)[GalNAc(a1-3)]Gal(b1-4)GlcNAc(b1-2)Man(a1-6)]Man(b1-4)GlcNAc(b1-4)[Fuc(a1-6)]GlcNAc
# Outline: as §1
# [12] = target: Fuc(a1-2)[GalNAc(a1-3)]Gal(b1-4)GlcNAc(b1-3)Gal(b1-4)GlcNAc
# Outline: as §1
# [13] = target: Fuc(a1-2)[GalNAc(a1-3)]Gal(b1-4)GlcNAc(b1-3)Gal(b1-4)GlcNAc(b1-3)Gal(b1-4)GlcNAc
# Outline: as §1
# [14] = target: Fuc(a1-2)[GalNAc(a1-3)]Gal(b1-4)GlcNAc(b1-3)GalNAc
# Outline: as §1
# [15] = target: Fuc(a1-2)[GalNAc(a1-3)]Gal(b1-4)GlcNAc(b1-3)[Fuc(a1-2)[GalNAc(a1-3)]Gal(b1-4)GlcNAc(b1-6)]GalNAc
# Outline: as §1
# [16] = target: Fuc(a1-2)[GalNAc(a1-3)]Gal(b1-4)GlcNAc(b1-6)GalNAc
# Outline: as §1
# [17] = target: Fuc(a1-2)[GalNAc(a1-3)]Gal(b1-4)[Fuc(a1-3)]GlcNAc
# Outline: as §1
# [18] = target: Fuc(a1-2)[GalNAc(a1-3)]Gal(b1-4)[Fuc(a1-3)]GlcNAc(b1-3)GalNAc
# Outline: as §1
# [19] = target: Fuc(a1-2)[GalNAc(a1-4)]Gal(b1-4)GlcNAc
# Outline: as §1
# [20] = target: Fuc(a1-2)[GalNAc(b1-3)]Gal
# Outline: as §1
# Fuc(a1-3)GlcNAc = target: Fuc(a1-3)GlcNAc
# Outline: as §1
# [21] = target: Fuc(a1-3)[Gal(b1-4)]Glc6S
# Outline: as §1
# [22] = target: Fuc(a1-3)[Gal(b1-4)]GlcNAc
# Outline: as §1
# [23] = target: Fuc(a1-3)[Gal(b1-4)]GlcNAc(b1-2)Man
# Outline: as §1
# [24] = target: Fuc(a1-3)[Gal(b1-4)]GlcNAc(b1-2)Man(a1-3)[Fuc(a1-3)[Gal(b1-4)]GlcNAc(b1-2)Man(a1-6)]Man(b1-4)GlcNAc(b1-4)GlcNAc
# Outline: as §1
# [25] = target: Fuc(a1-3)[Gal(b1-4)]GlcNAc(b1-2)Man(a1-3)[Fuc(a1-3)[Gal(b1-4)]GlcNAc(b1-2)Man(a1-6)]Man(b1-4)GlcNAc(b1-4)[Fuc(a1-6)]GlcNAc
# Outline: as §1
# [26] = target: Fuc(a1-3)[Gal(b1-4)]GlcNAc(b1-2)Man(a1-6)[Gal(b1-4)GlcNAc(b1-2)Man(a1-3)]Man(b1-4)GlcNAc(b1-4)GlcNAc
# Outline: as §1
# [27] = target: Fuc(a1-3)[Gal(b1-4)]GlcNAc(b1-3)Gal(b1-3)[Fuc(a1-4)]GlcNAc
# Outline: as §1
# [28] = target: Fuc(a1-3)[Gal(b1-4)]GlcNAc(b1-3)Gal(b1-4)[Fuc(a1-3)]GlcNAc
# Outline: as §1
# [29] = target: Fuc(a1-3)[Gal(b1-4)]GlcNAc(b1-3)Gal(b1-4)[Fuc(a1-3)]GlcNAc(b1-3)Gal(b1-4)[Fuc(a1-3)]GlcNAc
# Outline: as §1
# [30] = target: Fuc(a1-3)[Gal(b1-4)]GlcNAc(b1-3)GalNAc
# Outline: as §1
# [31] = target: Fuc(a1-3)[Gal(b1-4)]GlcNAc(b1-4)Gal(b1-4)[Fuc(a1-3)]GlcNAc
# Outline: as §1
# [32] = target: Fuc(a1-3)[Gal(b1-4)]GlcNAc(b1-4)Gal(b1-4)[Fuc(a1-3)]GlcNAc(b1-4)Gal(b1-4)[Fuc(a1-3)]GlcNAc
# Outline: as §1
# [33] = target: Fuc(a1-3)[Gal(b1-4)]GlcNAc(b1-6)GalNAc
# Outline: as §1
# [34] = target: Fuc(a1-3)[Gal(b1-4)]GlcNAc(b1-6)[Gal(b1-3)GlcNAc(b1-3)]Gal(b1-4)Glc
# Outline: as §1
# [35] = target: Fuc(a1-3)[Gal(b1-4)]GlcNAc6S
# Outline: as §1
# [36] = target: Fuc(a1-3)[Gal3S(b1-4)]Glc
# Outline: as §1
binder,measurement,setting,value
B1,glycan array binding signal (z-score),[1],-0.198
same,glycan array binding signal (z-score),[2],-0.289
same,glycan array binding signal (z-score),[3],1.06
same,glycan array binding signal (z-score),[4],-0.44
same,glycan array binding signal (z-score),[5],0.47
same,glycan array binding signal (z-score),[6],0.295
same,glycan array binding signal (z-score),[7],-0.313
same,glycan array binding signal (z-score),[8],-0.361
same,glycan array binding signal (z-score),[9],-0.552
same,glycan array binding signal (z-score),[10],0.238
same,glycan array binding signal (z-score),[11],0.087
same,glycan array binding signal (z-score),[12],-0.297
same,glycan array binding signal (z-score),[13],0.035
same,glycan array binding signal (z-score),[14],-0.004
same,glycan array binding signal (z-score),[15],-0.377
same,glycan array binding signal (z-score),[16],-0.169
same,glycan array binding signal (z-score),[17],-0.211
same,glycan array binding signal (z-score),[18],0.634
same,glycan array binding signal (z-score),[19],0.082
same,glycan array binding signal (z-score),[20],-0.16
same,glycan array binding signal (z-score),Fuc(a1-3)GlcNAc,-0.324
same,glycan array binding signal (z-score),[21],-0.163
same,glycan array binding signal (z-score),[22],-0.195
same,glycan array binding signal (z-score),[23],0.397
same,glycan array binding signal (z-score),[24],0.031
same,glycan array binding signal (z-score),[25],0.845
same,glycan array binding signal (z-score),[26],-0.063
same,glycan array binding signal (z-score),[27],-0.188
same,glycan array binding signal (z-score),[28],0.033
same,glycan array binding signal (z-score),[29],-0.212
same,glycan array binding signal (z-score),[30],0.287
same,glycan array binding signal (z-score),[31],-0.013
same,glycan array binding signal (z-score),[32],-0.131
same,glycan array binding signal (z-score),[33],1.14
same,glycan array binding signal (z-score),[34],-0.245
same,glycan array binding signal (z-score),[35],0
same,glycan array binding signal (z-score),[36],1.83

# 3 entries picked at random from the list so far, as already listed:
binder,measurement,setting,value
B1,glycan array binding signal (z-score),[29],-0.212
same,glycan array binding signal (z-score),[3],1.06
same,glycan array binding signal (z-score),[33],1.14
